The whole screen tested about 400,000 compounds, of which about 13,000 (3.2%) were called active. This list was built around the results that the source calls inconclusive (neither active nor inactive); the mix of calls is not that of the screen. Calls follow the shape of the dose curve; as a rule, active = well fitted cell-killing curve with a large enough effect; inconclusive = small, poorly fitted or top-dose-only effect, or effect the other way; inactive = flat fitted curve, though single readings scatter. Where the call is inconclusive, the potency comes from a doubtful curve fit.
experiment: qHTS assay for MDR1-selective chemotherapeutics: Primary screen using the drug-selected MDR subline cells KB-V1; details: KB-V1 MDR cells viability, CellTiter-Glo, 72 h; activity change, negative = cytotoxicity: at 46.1 µM (top of the series); also: nearly all actives have a fitted effect of over 60% in size
How it was run: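 Compound-treated KB-V1 multidrug-resistant cells, 72 h, 37 degrees C; viability by CellTiter-Glo. Fitted qHTS curves give the values.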
% is scaled to controls: 0 for no effect and ±100 for the full control effect; potency is read from the fitted curve at half-maximal effect.

| SMILES | activity change, negative = cytotoxicity | Potency |
| --- | --- | --- |
| CC(NC(=O)COC(=O)Cn1cnc2ccccc2c1=O)C1CC2CCC1C2 (configuration not stated) | inactive: -2.47% | – |
| CNC(=S)N/N=C/c1ccc(C(C)C)cc1 | – | inconclusive: 29.1 µM [cytotoxic, single point] |
| Cn1ccc2c(N3CCCCCC3)cc3c(c21)C1CCC3O1 (configuration not stated) | inactive: 0% | – |
| CCOC(=O)C(Cc1ccc(NC(C)=O)cc1)N1C(=O)c2ccccc2C1=O (configuration not stated) | inactive: 9.89% | – |
| Cc1cc(C)c(S(=O)(=O)Cc2ccccc2)c(=O)[nH]1 | inactive: 1.22% | – |
| CC(Oc1ccccc1)C(=O)Nc1nnc(C2CCCCC2)s1 (configuration not stated) | – | inconclusive: 8.2 µM [cytotoxic, partial curve] |
| Cc1nc2cccnc2n1C1CCN(S(=O)(=O)N(C)C)CC1 | inactive: 20.7% | – |
| CC1CCN(C(=O)c2ccc(S(=O)(=O)NCc3ccco3)cc2)CC1 | – | inconclusive: 29.1 µM [cytotoxic, single point] |
| COc1ccc(CCCc2nnc(SCC(=O)Nc3cc(C)ccc3C)o2)cc1 | – | inactive |
| CCc1ccc(-c2[nH]nc3nc(-c4ccc(OC)cc4)cc(C(=O)NCCCOC)c23)cc1 | – | inconclusive: 18.4 µM [rising, single point] |
| COc1ccccc1N1CCN(C(=O)c2ccc(-c3nc4ccccc4s3)o2)CC1 | – | inconclusive: 3.26 µM [cytotoxic, full curve] |
| CC1(C)NC(=O)N(CCOCCOc2ccc3ccccc3c2Br)C1=O | – | active: 20.6 µM |
| Cc1ccccc1N=C1Nc2ccccc2CS1 | – | inconclusive: 23.1 µM [cytotoxic, single point] |
| O=c1c(S(=O)(=O)c2ccc(Cl)cc2)cn(Cc2ccccc2)c2ccc(F)cc12 | – | active: 4.11 µM |
| CCOC(=O)c1ccc(NC(=O)C2(c3ccc(Cl)cc3)CCCC2)cc1 | – | inconclusive: 16.4 µM [cytotoxic, partial curve] |
| CCn1c(N2CCN(S(=O)(=O)c3ccc(OC)cc3)CC2)nc2ccccc21 | – | active: 13 µM |
| O=C1c2cc([N+](=O)[O-])ccc2-c2cc(Br)c(N=C(NO)C(F)(F)F)cc21 | – | inconclusive: 16.4 µM [cytotoxic, single point] |
| Nc1nnc(SCC(=O)Nc2cccc(S(=O)(=O)N3CCCCC3)c2)s1 | inactive: 0% | – |
| CN(CC(=O)O)c1ccc(C(F)(F)F)cc1[N+](=O)[O-] | inactive: 15.2% | – |
| CSc1ccccc1NS(=O)(=O)c1ccc2c(c1)OCCO2 | – | active: 20.6 µM |
| COc1ccc(N2CCN(C(=O)CNC(=O)c3ccco3)CC2)cc1 | – | inconclusive: 5.17 µM [rising, full curve] |
| Cc1nc2ccc(S(=O)(=O)N(CC(=O)Nc3cccc(Cl)c3)Cc3ccccc3)cc2s1 | inactive: -24.8% | – |
| Cc1cc(NC(=O)CCC(=O)N(c2cccc(F)c2)C(C(=O)NC2CCCC2)c2ccc(C)o2)no1 (configuration not stated) | – | inconclusive: 9.2 µM [cytotoxic, partial curve, poor fit] |
| CCN(CC)c1cc(C)c(C#N)c2nc3ccccc3n12 | – | inconclusive: 2.91 µM [cytotoxic, full curve] |

| SMILES | activity change, negative = cytotoxicity | Potency |
| --- | --- | --- |
| O=C(Nc1oc2ccccc2c(=O)c1-c1ccccc1)c1ccco1 | inactive: -14.2% | – |
| C[C@@H](c1ccccc1)N1C[C@H](COCc2ccccc2)Oc2cc(N3CCC[C@H]3CO)ccc2S1(=O)=O | – | inconclusive: 20.6 µM [cytotoxic, single point] |
| CC1CCN(C(=O)c2ncn3c2c(=O)[nH]c2ccccc23)CC1 | – | inconclusive: 3.66 µM [rising, partial curve, poor fit] |
| Cc1ccc(OCCN2CCN(c3ncnc4sc(C)c(C)c34)CC2)cc1 | inactive: 0% | – |
| CC(C)C[C@H]1CN(CCCC[C@H]2CNC(=O)C(=O)N2CCC2CCCCC2)C(=O)C(=O)N1CC1CCCCC1 | – | inconclusive: 29.1 µM [rising, single point] |
| CN(Cc1ccccc1F)C(=O)C(Cc1ccccc1)NC(=O)c1ccccc1 (configuration not stated) | – | inconclusive: 13 µM [cytotoxic, partial curve, poor fit] |
| CCCCOc1ccc(CNC(=O)Cc2ccc(NC(=O)N3CCCCc4ccccc43)cc2)cc1 | – | inconclusive: 29.1 µM [cytotoxic, single point] |
| CCCCCn1nc(C(=O)OCc2nnc(-c3ccccc3)o2)c2ccccc2c1=O | – | inconclusive: 18.4 µM [rising, single point] |
| Cc1ccc(-c2csc(NC(=O)c3cccc(C)c3)c2C(=O)O)cc1 | – | inconclusive: 20.6 µM [cytotoxic, partial curve, poor fit] |
| Cc1ccnc(NC(=O)c2cccc(S(=O)(=O)N3CCN(c4ccc(F)cc4)CC3)c2)c1 | – | inconclusive: 3.26 µM [cytotoxic, full curve] |
| Cc1cc(C)c2cc(C#N)c(NCCNC(=O)c3ccccc3)nc2c1 | – | inconclusive: 14.6 µM [cytotoxic, partial curve] |
| COCCCNc1nc2c(-c3ccc(C)cc3)nnn2c2ccccc12 | inactive: -18% | – |
| COc1ccc(CNCC(=O)Nc2sccc2C#N)cc1 | – | inconclusive: 29.1 µM [cytotoxic, single point] |
| Cn1nc(C(F)(F)F)c(-c2ccc(F)cc2)c1NC(=O)c1ccco1 | inactive: 0% | – |
| Nc1nonc1-n1nnc(C(=O)N/N=C/c2ccc(O)cc2)c1COc1ccc(F)cc1 | inconclusive: -0.306% | – |
| COc1ccc(N2C(=O)c3ccccc3NC2c2ccc(OC)c(Cn3cc([N+](=O)[O-])cn3)c2)cc1 (configuration not stated) | inactive: -11.3% | – |
| Cn1c(Sc2ccccc2Cl)c(C=O)c2ccccc21 | – | inconclusive: 32.6 µM [cytotoxic, partial curve, poor fit] |
| CC(Sc1nnnn1C1CC1)C(=O)N1c2ccccc2NC(=O)C1(C)C (configuration not stated) | – | active: 20.6 µM |
| CCOc1ccccc1/C=C/c1onc(C)c1S(=O)(=O)N1CCC(C(=O)NC(C)C)CC1 | inconclusive: -16.4% | – |
| Cc1ccc(CSCC2Nc3ccc(C(=O)N4CCN(c5ccc(F)cc5)CC4)cc3NC2=O)cc1 (configuration not stated) | inconclusive: 6.53% | – |
| O=C1C(CCc2ccccc2)ON=C(c2cnccn2)N1Cc1ccc(F)cc1 (configuration not stated) | – | inconclusive: 18.4 µM [cytotoxic, single point] |
| O=C(Nc1ccc(Cl)cn1)c1ccc(COc2ccccc2Br)o1 | – | inconclusive: 29.1 µM [cytotoxic, single point] |
| Cc1cccc(Oc2cc(NC(=O)c3ccccc3)cc([N+](=O)[O-])c2)c1 | – | inconclusive: 18.4 µM [cytotoxic, single point] |
| CCn1c(=O)n(-c2ccc(F)cc2)c(=O)c2sc3ccccc3c21 | – | inconclusive: 16.4 µM [rising, single point] |

| SMILES | activity change, negative = cytotoxicity | Potency |
| --- | --- | --- |
| O=C(NCc1cccs1)C1CC(c2ccc(F)cc2)=NO1 (configuration not stated) | inactive: 4.35% | – |
| CCS(=O)(=O)c1ncc(Cl)c(C(=O)Nc2ccc(S(=O)(=O)N3CCCC(C)C3)cc2)n1 (configuration not stated) | – | active: 5.8 µM |
| Cc1cc(N2CCN(Cc3cn(C)nc3-c3ccccc3F)CC2)cc(C)n1 | inactive: -11.5% | – |
| O=C(CNc1cccc2ccccc12)N/N=C/c1ccc[nH]1 | – | inconclusive: 29.1 µM [rising, single point] |
| O=C(c1ccccc1Cl)N(Cc1ccco1)c1ccccn1 | inactive: 11.7% | – |
| Cc1nn(C(C)C(=O)NCCCc2ccccc2)c(=O)c2nn(-c3ccccc3)c(C)c12 (configuration not stated) | – | inconclusive: 9.2 µM [cytotoxic, partial curve, poor fit] |
| Cc1cc(-c2csc(Nc3ccccn3)n2)ccc1F | inactive: -28.9% | – |
| Cc1nc([N+](=O)[O-])cn1CC(=O)c1ccc(Br)cc1 | – | inconclusive: 23.1 µM [rising, single point] |
| CC(=O)N1CCC2(CC1)OC(=O)C(C)=C2C(=O)Nc1cc(C)ccc1C | – | inconclusive: 25.9 µM [rising, single point] |
| Cc1ccc(OCC(=O)Nc2cc(C(C)(C)C)on2)cc1C | – | inconclusive: 2.59 µM [rising, full curve, poor fit] |
| CCN(CC)C(=O)N1c2ccccc2C=Cc2ccccc21 | – | inconclusive: 2.06 µM [cytotoxic, partial curve, poor fit] |
| CC(=O)N1N=C(c2ccccc2)CC1c1ccc2c(c1)OCO2 (configuration not stated) | inactive: 11% | – |
| O=C(N/N=C1\CCCc2ccccc21)c1ccc([N+](=O)[O-])cc1 | – | inconclusive: 14.6 µM [cytotoxic, partial curve, poor fit] |
| O=C(N/N=C/c1cc(Cl)ccc1O)c1ccncc1 | inconclusive: -36.4% [cytotoxic] | – |
| COc1ccc(Nc2ccccc2NC(=O)c2ccccc2Br)cc1 | – | inconclusive: 5.17 µM [cytotoxic, full curve] |
| C=CCNC(=O)Cn1c(=O)c2c(ncn2CCC(C)C)n(Cc2ccccc2)c1=O | – | inconclusive: 29.1 µM [cytotoxic, single point] |
| CCCCNC(=O)c1nc(-c2cc3ccccc3[nH]2)oc1-c1ccccc1 | – | active: 8.2 µM |
| CC(=O)NN1C(=O)c2ccccc2NC1c1cccc([N+](=O)[O-])c1 (configuration not stated) | – | inconclusive: 29.1 µM [rising, single point] |
| CC(C)(C)C(=O)NC(NC(=O)C(C)(C)C)c1ccc([N+](=O)[O-])cc1 | – | inconclusive: 11.6 µM [cytotoxic, partial curve] |
| C[C@H](CO)N1C[C@H](C)[C@@H](CN(C)Cc2ccc(C(=O)O)cc2)Oc2ncc(Br)cc2C1=O | inactive: 0% | – |
| COc1ccc2c(c1)CCC1=C2NC(=S)NC1c1ccc(N(C)C)cc1 (configuration not stated) | – | inconclusive: 14.6 µM [cytotoxic, partial curve, poor fit] |
| CC(C)c1ccccc1OS(N)(=O)=O | inactive: -20.4% | – |
| O=C(O)CC1(CC(=O)Nc2ccc3sccc3c2)CCCCC1 | inactive: 10.8% | – |
| CCN(CC)S(=O)(=O)c1cc(Br)ccc1OC | – | inconclusive: 18.4 µM [cytotoxic, single point] |

Single entries from the results shown:
CCN(CC)S(=O)(=O)c1cc(Br)ccc1OC – Potency: inconclusive: 18.4 µM [cytotoxic, single point]
Cn1ccc2c(N3CCCCCC3)cc3c(c21)C1CCC3O1 (configuration not stated) – activity change, negative = cytotoxicity: inactive: 0%
CCn1c(=O)n(-c2ccc(F)cc2)c(=O)c2sc3ccccc3c21 – Potency: inconclusive: 16.4 µM [rising, single point]
Cc1cccc(Oc2cc(NC(=O)c3ccccc3)cc([N+](=O)[O-])c2)c1 – Potency: inconclusive: 18.4 µM [cytotoxic, single point]

Reprinted from above, 2 compounds:

| SMILES | activity change, negative = cytotoxicity | Potency |
| --- | --- | --- |
| CCCCNC(=O)c1nc(-c2cc3ccccc3[nH]2)oc1-c1ccccc1 | – | active: 8.2 µM |
| CC(=O)NN1C(=O)c2ccccc2NC1c1cccc([N+](=O)[O-])c1 (configuration not stated) | – | inconclusive: 29.1 µM [rising, single point] |
